Target: Cytochrome P450 2C19 (Homo sapiens, UniProt P33261)
Experiment: Inhibition of CYP2C19 in human liver microsomes preincubated for 10 mins followed by NADPH addition and measured after 15 mins by LC/MS/MS analysis

Amino acid sequences for entries named in this document (tags omitted).
UniProt P33261, whole entry: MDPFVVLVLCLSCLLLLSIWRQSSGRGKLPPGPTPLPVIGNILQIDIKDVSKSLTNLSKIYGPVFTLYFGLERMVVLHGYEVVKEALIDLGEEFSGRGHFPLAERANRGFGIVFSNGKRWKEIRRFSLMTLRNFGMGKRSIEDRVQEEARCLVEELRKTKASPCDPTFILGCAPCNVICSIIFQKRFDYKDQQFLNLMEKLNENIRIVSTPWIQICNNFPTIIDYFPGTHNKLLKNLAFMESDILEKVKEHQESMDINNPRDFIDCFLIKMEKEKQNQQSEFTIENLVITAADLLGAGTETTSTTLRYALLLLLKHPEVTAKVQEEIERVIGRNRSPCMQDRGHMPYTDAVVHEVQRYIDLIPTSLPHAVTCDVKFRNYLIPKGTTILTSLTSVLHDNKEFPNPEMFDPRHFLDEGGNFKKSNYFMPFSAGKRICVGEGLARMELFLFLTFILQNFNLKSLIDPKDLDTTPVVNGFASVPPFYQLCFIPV

N#Cc1ccc(Nc2nccc(Nc3c(F)cc(-c4ccncc4)cc3F)n2)cc1
IC50: 6.8 µM

— ChEMBL document CHEMBL6120973 (J Med Chem, 2024)
